# Data taken from patent US20030199017A1, “Method for releasing a product comprising chemical oxidation, method for detecting said product and uses thereof” (Proteus, priority 2000, published 2003).
# Legend:
# [1] = detection of the release of a volatile compound (perception of odor); conditions: 10 mg product mixed with 10 mg NaIO4 and 1 g MgSO4, left in air
# [2] = stability of the substrates / oxidation by periodate in the presence of BSA; type: physicochemical; conditions: 100 μm of substrate, 1 mmol of sodium periodate, 2 mg/ml of BSA, borate buffer pH 8.8
# Text: The oxidation of 1,2 diols and amino alcohols by periodate in an aqueous medium is a reaction that is well known to one skilled in the art. This reaction provides a purely chemical alternative for the conversion of alcohols into carbonyl groups in aqueous medium with a high chemoselectivity in the presence of other functional groups.
# The substrates acetates 1, amide 5 and epoxide 6 are stable in the presence of periodate and BSA […] the aqueous media. […] Under optimized reaction conditions using 100 μm of substrate, 1 mmol of sodium periodate, 2 mg/ml of BSA in a borate buffer with a pH of 8.8, diol 2 is transformed into umbelliferone with a yield of 72% without observable secondary reactions. […] The oxidation of amino alcohol 6 takes place with a yield of 85% under the same conditions.
structure (smiles),measurement,setting,value
"CCCC(O)CO (stereo not shown) [1,2-Pentanediol, 1,2-pentanediol]",perception of perfumes (odor),[1]; Period: 1 month,2 or 3 ml of water
same,perception of perfumes (odor),[1]; Period: 5 months,A larger amount of
same,perception of perfumes (odor),[1]; Period: 5 days,2 or 3 drops of
same,perception of perfumes (odor),[1]; Period: day,A simple stirring
"OC(c1ccccc1)C(O)c1ccccc1 (stereo not shown) [Hydrobenzoin, hydrobenzoin]",perception of perfumes (odor),[1]; Period: 1 month,2 or 3 ml of water
same,perception of perfumes (odor),[1]; Period: 5 months,idem
same,perception of perfumes (odor),[1]; Period: 5 days,2 or 3 drops of
same,perception of perfumes (odor),[1]; Period: day,A simple stirring of
"NCC(O)CCOc1ccc2ccc(=O)oc2c1 (stereo not shown) [amino alcohol 6, 1-Amino-4-(7-coumarinyloxy)-2-butanol]",oxidation yield (transformed into umbelliferone),[2],85%
"O=c1ccc2ccc(OCC[C@H](O)CO)cc2o1 [diol 2, (S)-4-(7-coumarinyloxy)-1,2-butanediol]",oxidation yield (transformed into umbelliferone),[2],72%
